In PubChem BioAssay AID248 (DTP/NCI, 2004) one finds survivor count data, which are given here for 2 molecules.

The list shows only some results of the screen, not a fair sample: it is rich in T/C values a quarter to a half above the control, in often repeated tests (any T/C) and in doses without a T/C. Further doses and runs are listed elsewhere. T/C is the treated group as % of the vehicle group. Some entries give survivors of the animals treated and no T/C: the source files T/C as zero there, which appears to mark a toxic dose or a test without result, not a measured value. Counts of survivors are from the toxicity check (mostly the fifth day) where no day follows; animals may have died later. Schedules are NCI's codes, taken here to give the interval after Q, in days (D) or hours (H), and the number of doses after X.

For the experiment, the system named is L1210 leukemia ip in BDF1 mice, survival T/C. As to the kind of experiment: NCI In Vivo Anticancer Drug Screen. Data for tumor model L1210 Leukemia (intraperitoneal) in B6D2F1 (BDF1) mice. The conditions noted are these: T/C endpoint: mean survival time, higher T/C = longer survival.

Take `CCOC(=O)C(C(=O)O)(C(c1ccccc1)c1ccccc1)C(c1ccccc1)c1ccccc1`: the survivor count (dose: 150.0 mg/kg/injection, schedule: Q01DX001 (ip), vehicle: carboxymethylcellulose (CMC)) is on record as 0 of 6 and the survivor count (dose: 300.0 mg/kg/injection, schedule: Q01DX001 (ip), vehicle: carboxymethylcellulose (CMC)) is reported as 0 of 6.

For the molecule `O=S(=O)(O)c1ccccn1`, under “dose: 400.0 mg/kg/injection, schedule: Q04DX003 (ip), vehicle: saline”, the survivor count is reported as 2 of 6.
